Differences between knockout arms are mostly noise.
System: HCC-38
Assay: relative cell number vs DMSO control (72 h) (% of DMSO); higher = less growth inhibition (more cells)
Method: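 QMAP-Seq: a pool of 5 breast cancer cell lines (ZR-75-1, SKBR3, HCC-38, MDA-MB-231, BT-20), each carrying 12 doxycycline-inducible Cas9 sgRNA perturbations (11 knockouts plus non-targeting sgNT), was treated with compounds for 72 h at four 10-fold doses (10 nM-10 uM or 1 nM-1 uM range). Barcodes were amplified and sequenced, and cell number was interpolated from 293T spike-in standard curves. The result is expressed as % of the median of DMSO wells. Two biological replicates.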

CCn1c(=O)c2c(nc(/C=C/c3ccc(OC)c(OC)c3)n2C)n(CC)c1=O [Istradefylline]
Conditions	relative cell number
sgRNA knockout: sgATF3, 10 nM	89
sgRNA knockout: sgATF3, 100 nM	90.8
sgRNA knockout: sgATF3, 1000 nM	94.8
sgRNA knockout: sgATF3, 10000 nM	100.6
sgRNA knockout: sgATF4, 10 nM	82.67
sgRNA knockout: sgATF4, 100 nM	97.2
sgRNA knockout: sgATF4, 1000 nM	93.3
sgRNA knockout: sgATF4, 10000 nM	99.6
sgRNA knockout: sgATF6, 10 nM	89.3
sgRNA knockout: sgATF6, 100 nM	109
sgRNA knockout: sgATF6, 1000 nM	105
sgRNA knockout: sgATF6, 10000 nM	99.2
sgRNA knockout: sgATG7, 10 nM	83.8
sgRNA knockout: sgATG7, 100 nM	96.4
sgRNA knockout: sgATG7, 1000 nM	87.4
sgRNA knockout: sgATG7, 10000 nM	98.6
sgRNA knockout: sgERN1, 10 nM	83.1
sgRNA knockout: sgERN1, 100 nM	98.8
sgRNA knockout: sgERN1, 1000 nM	98.78
sgRNA knockout: sgERN1, 10000 nM	97.4
sgRNA knockout: sgHSF1, 10 nM	86.9
sgRNA knockout: sgHSF1, 100 nM	101
sgRNA knockout: sgHSF1, 1000 nM	111
sgRNA knockout: sgHSF1, 10000 nM	115
sgRNA knockout: sgHSF2, 10 nM	85.1
sgRNA knockout: sgHSF2, 100 nM	102
sgRNA knockout: sgHSF2, 1000 nM	100
sgRNA knockout: sgHSF2, 10000 nM	99.7
sgRNA knockout: sgKEAP1, 10 nM	85.8
sgRNA knockout: sgKEAP1, 100 nM	91.5
sgRNA knockout: sgKEAP1, 1000 nM	97.6
sgRNA knockout: sgKEAP1, 10000 nM	114
sgRNA knockout: sgNFE2L2, 10 nM	89.7
sgRNA knockout: sgNFE2L2, 100 nM	94.8
sgRNA knockout: sgNFE2L2, 1000 nM	87.2
sgRNA knockout: sgNFE2L2, 10000 nM	93.7
sgRNA knockout: sgSLC35F2, 10 nM	85.5
sgRNA knockout: sgSLC35F2, 100 nM	94.6
sgRNA knockout: sgSLC35F2, 1000 nM	88.1
sgRNA knockout: sgSLC35F2, 10000 nM	109
sgRNA knockout: sgXBP1, 10 nM	87.4
sgRNA knockout: sgXBP1, 100 nM	92.5
sgRNA knockout: sgXBP1, 1000 nM	87.5
sgRNA knockout: sgXBP1, 10000 nM	103

Nc1nc(Cl)nc2c1ncn2[C@@H]1O[C@H](CO)[C@@H](O)[C@@H]1F [Clofarabine]
Conditions	relative cell number
sgRNA knockout: sgATF3, 10 nM	106
sgRNA knockout: sgATF3, 100 nM	26.3
sgRNA knockout: sgATF3, 1000 nM	10.6
sgRNA knockout: sgATF3, 10000 nM	11.6
sgRNA knockout: sgATF4, 10 nM	98.7
sgRNA knockout: sgATF4, 100 nM	26
sgRNA knockout: sgATF4, 1000 nM	11.1
sgRNA knockout: sgATF4, 10000 nM	11.5
sgRNA knockout: sgATF6, 10 nM	101
sgRNA knockout: sgATF6, 100 nM	30
sgRNA knockout: sgATF6, 1000 nM	11.8
sgRNA knockout: sgATF6, 10000 nM	15.2
sgRNA knockout: sgATG7, 10 nM	97.9
sgRNA knockout: sgATG7, 100 nM	28.6
sgRNA knockout: sgATG7, 1000 nM	10.8
sgRNA knockout: sgATG7, 10000 nM	12.3
sgRNA knockout: sgERN1, 10 nM	94.1
sgRNA knockout: sgERN1, 100 nM	28.1
sgRNA knockout: sgERN1, 1000 nM	12.5
sgRNA knockout: sgERN1, 10000 nM	11.7
sgRNA knockout: sgHSF1, 10 nM	84.3
sgRNA knockout: sgHSF1, 100 nM	35.4
sgRNA knockout: sgHSF1, 1000 nM	13.5
sgRNA knockout: sgHSF1, 10000 nM	11
sgRNA knockout: sgHSF2, 10 nM	98.7
sgRNA knockout: sgHSF2, 100 nM	26.2
sgRNA knockout: sgHSF2, 1000 nM	15.4
sgRNA knockout: sgHSF2, 10000 nM	11.9
sgRNA knockout: sgKEAP1, 10 nM	92.8
sgRNA knockout: sgKEAP1, 100 nM	35.4
sgRNA knockout: sgKEAP1, 1000 nM	13.26
sgRNA knockout: sgKEAP1, 10000 nM	10.7
sgRNA knockout: sgNFE2L2, 10 nM	99.5
sgRNA knockout: sgNFE2L2, 100 nM	24
sgRNA knockout: sgNFE2L2, 1000 nM	10.4
sgRNA knockout: sgNFE2L2, 10000 nM	10.5
sgRNA knockout: sgSLC35F2, 10 nM	98.3
sgRNA knockout: sgSLC35F2, 100 nM	24.6
sgRNA knockout: sgSLC35F2, 1000 nM	10.7
sgRNA knockout: sgSLC35F2, 10000 nM	11.7
sgRNA knockout: sgXBP1, 10 nM	98.2
sgRNA knockout: sgXBP1, 100 nM	25.93
sgRNA knockout: sgXBP1, 1000 nM	8.85
sgRNA knockout: sgXBP1, 10000 nM	12.2

CC(=O)Nc1nc(C)c(-c2ccc(Cl)c(S(=O)(=O)NCCO)c2)s1 [PIK93]
Conditions	relative cell number
sgRNA knockout: sgATF3, 10 nM	125
sgRNA knockout: sgATF3, 100 nM	124
sgRNA knockout: sgATF3, 1000 nM	83.5
sgRNA knockout: sgATF3, 10000 nM	67.9
sgRNA knockout: sgATF4, 10 nM	120
sgRNA knockout: sgATF4, 100 nM	125
sgRNA knockout: sgATF4, 1000 nM	71.8
sgRNA knockout: sgATF4, 10000 nM	59.7
sgRNA knockout: sgATF6, 10 nM	127
sgRNA knockout: sgATF6, 100 nM	100
sgRNA knockout: sgATF6, 1000 nM	85.16
sgRNA knockout: sgATF6, 10000 nM	69.6
sgRNA knockout: sgATG7, 10 nM	125
sgRNA knockout: sgATG7, 100 nM	113
sgRNA knockout: sgATG7, 1000 nM	81.9
sgRNA knockout: sgATG7, 10000 nM	67.9
sgRNA knockout: sgERN1, 10 nM	118
sgRNA knockout: sgERN1, 100 nM	118.1
sgRNA knockout: sgERN1, 1000 nM	79.9
sgRNA knockout: sgERN1, 10000 nM	63.9
sgRNA knockout: sgHSF1, 10 nM	125
sgRNA knockout: sgHSF1, 100 nM	96.3
sgRNA knockout: sgHSF1, 1000 nM	99.7
sgRNA knockout: sgHSF1, 10000 nM	71.9
sgRNA knockout: sgHSF2, 10 nM	127
sgRNA knockout: sgHSF2, 100 nM	117
sgRNA knockout: sgHSF2, 1000 nM	86.4
sgRNA knockout: sgHSF2, 10000 nM	66.6
sgRNA knockout: sgKEAP1, 10 nM	112
sgRNA knockout: sgKEAP1, 100 nM	106
sgRNA knockout: sgKEAP1, 1000 nM	85.4
sgRNA knockout: sgKEAP1, 10000 nM	76.6
sgRNA knockout: sgNFE2L2, 10 nM	130
sgRNA knockout: sgNFE2L2, 100 nM	125
sgRNA knockout: sgNFE2L2, 1000 nM	69.4
sgRNA knockout: sgNFE2L2, 10000 nM	58
sgRNA knockout: sgSLC35F2, 10 nM	115
sgRNA knockout: sgSLC35F2, 100 nM	128
sgRNA knockout: sgSLC35F2, 1000 nM	81.1
sgRNA knockout: sgSLC35F2, 10000 nM	67.8
sgRNA knockout: sgXBP1, 10 nM	127
sgRNA knockout: sgXBP1, 100 nM	125
sgRNA knockout: sgXBP1, 1000 nM	78.8
sgRNA knockout: sgXBP1, 10000 nM	66.7
